Assay results from publication PMC10978942.
No constants are given. Whether binding was seen depends on the method and setting. Tags and fused reporters may be left off the sequences shown.

Target: T1, ACE1^R383Q-BD (Trichoderma reesei) (UniProt Q9P8W3)
T1 sequence: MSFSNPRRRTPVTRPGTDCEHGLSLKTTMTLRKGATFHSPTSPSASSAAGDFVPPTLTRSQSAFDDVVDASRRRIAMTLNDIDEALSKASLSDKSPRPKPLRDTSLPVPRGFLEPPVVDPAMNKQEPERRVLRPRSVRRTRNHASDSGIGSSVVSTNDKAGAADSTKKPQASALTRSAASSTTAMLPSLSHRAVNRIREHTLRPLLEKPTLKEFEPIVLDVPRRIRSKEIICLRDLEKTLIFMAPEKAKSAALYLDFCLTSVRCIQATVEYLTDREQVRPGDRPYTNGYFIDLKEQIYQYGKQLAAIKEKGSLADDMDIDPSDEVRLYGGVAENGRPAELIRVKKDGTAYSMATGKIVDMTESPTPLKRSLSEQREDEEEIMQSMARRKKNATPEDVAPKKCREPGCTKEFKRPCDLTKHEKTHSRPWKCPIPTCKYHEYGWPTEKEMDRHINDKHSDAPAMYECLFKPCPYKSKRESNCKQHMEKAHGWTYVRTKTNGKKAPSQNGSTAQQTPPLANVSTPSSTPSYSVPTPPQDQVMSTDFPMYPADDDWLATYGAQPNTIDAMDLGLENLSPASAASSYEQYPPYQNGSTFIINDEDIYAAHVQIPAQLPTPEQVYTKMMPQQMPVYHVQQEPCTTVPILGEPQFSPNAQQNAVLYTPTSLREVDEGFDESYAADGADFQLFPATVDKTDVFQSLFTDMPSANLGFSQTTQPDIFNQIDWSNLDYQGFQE
Assay: two-hybrid; Matchmaker Gold Yeast Two-Hybrid System; trsam or xyr1 on the GAL4 activation domain (pGADT7), regulators on the GAL4 DNA-binding domain (pGBKT7); growth without histidine and adenine, 3-amino-1,2,4-triazole, X-alpha-gal

B1: XYR1-AD (protein, UniProt G0RLE8 1-920)
chain: MLSNPLRRYSAYPDISSASFDPNYHGSQSHLHSINVNTFGNSHPYPMQHLAQHAELSSSRMIRASPVQPKQRQGSLIAARKNSTGTAGPIRRRISRACDQCNQLRTKCDGLHPCAHCIEFGLGCEYVRERKKRGKASRKDIAAQQAAAAAAQHSGQVQDGPEDQHRKLSRQQSESSRGSAELAQPAHDPPHGHIEGSVSSFSDNGLSQHAAMGGMDGLEDHHGHVGVDPALGRTQLEASSAMGLGAYGEVHPGYESPGMNGHVMVPPSYGAQTTMAGYSGISYAAQAPSPATYSSDGNFRLTGHIHDYPLANGSSPSWGQSDLRYPVLEPLLPHLGNILPVSLACDLIDLYFSSSSSAQMHPMSPYVLGFVFRKRSFLHPTNPRRCQPALLASMLWVAAQTSEASFLTSLPSARSKVCQKLLELTVGLLQPLIHTGTNSPSPKTSPVVGAAALGVLGVAMPGSLNMDSLAGETGAFGAIGSLDDVITYVHLATVVSASEYKGASLRWWGAAWSLARELKLGRELPPGNPPANQEDGEGLSEDVDEHDLNRNNTRFVTEEEREERRRAWWLVYIVDRHLALCYNRPLFLLDSECSDLYHPMDDIKWQAGKFRSHDAGNSSINIDSSMTDEFGDSPRAARGAHYECRGRSIFGYFLSLMTILGEIVDVHHAKSHPRFGVGFRSARDWDEQVAEITRHLDMYEESLKRFVAKHLPLSSKDKEQHEMHDSGAVTDMQSPLSVRTNASSRMTESEIQASIVVAYSTHVMHVLHILLADKWDPINLLDDDDLWISSEGFVTATSHAVSAAEAISQILEFDPGLEFMPFFYGVYLLQGSFLLLLIADKLQAEASPSVIKACETIVRAHEACVVTLSTEYQRNFSKVMRSALALIRGRVPEDLAEQQQRRRELLALYRWTGNGTGLAL
- binding: no binding
